Earlier results, collected in patent publication US6673831B1, “Combination therapy for reducing the risks associated with cardiovascular disease” (Merck & Co., Inc., priority 1996, dated 2004).
At least one structure is not confirmed: it was looked up by name or label, or the drawing left a doubt.

System: coronary heart disease
Details: treated patients, 5 year study

SMILES: CCC(C)(C)C(=O)O[C@H]1C[C@@H](C)C=C2C=C[C@H](C)[C@H](CC[C@@H]3C[C@@H](O)CC(=O)O3)[C@H]21 [simvastatin]
- reduction in the risk of coronary death: 42%
